The effect of the compound repeats well; differences between the knockouts mostly do not.
Tested on: BT-20
Test: relative cell number vs DMSO control (72 h) (% of DMSO); higher = less growth inhibition (more cells)
Method: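 QMAP-Seq: a pool of 5 breast cancer cell lines (ZR-75-1, SKBR3, HCC-38, MDA-MB-231, BT-20), each carrying 12 doxycycline-inducible Cas9 sgRNA perturbations (11 knockouts plus non-targeting sgNT), was treated with compounds for 72 h at four 10-fold doses (10 nM-10 uM or 1 nM-1 uM range). Barcodes were amplified and sequenced, and cell number was interpolated from 293T spike-in standard curves. The result is expressed as % of the median of DMSO wells. Two biological replicates.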

CC(=O)Nc1nc(C)c(S(=O)(=O)Nc2ccc(C(O)(C(F)(F)F)C(F)(F)F)cc2)s1 [SR1001]
Details | relative cell number
sgRNA knockout: sgATF3, 10 nM | 106
sgRNA knockout: sgATF3, 100 nM | 86.6
sgRNA knockout: sgATF3, 1000 nM | 107
sgRNA knockout: sgATF3, 10000 nM | 97.1
sgRNA knockout: sgATF4, 10 nM | 107
sgRNA knockout: sgATF4, 100 nM | 94.7
sgRNA knockout: sgATF4, 1000 nM | 111
sgRNA knockout: sgATF4, 10000 nM | 114
sgRNA knockout: sgATF6, 10 nM | 98.1
sgRNA knockout: sgATF6, 100 nM | 94.6
sgRNA knockout: sgATF6, 1000 nM | 116.5
sgRNA knockout: sgATF6, 10000 nM | 116
sgRNA knockout: sgATG7, 10 nM | 108
sgRNA knockout: sgATG7, 100 nM | 89.7
sgRNA knockout: sgATG7, 1000 nM | 124
sgRNA knockout: sgATG7, 10000 nM | 103
sgRNA knockout: sgERN1, 10 nM | 91.8
sgRNA knockout: sgERN1, 100 nM | 95.7
sgRNA knockout: sgERN1, 1000 nM | 120
sgRNA knockout: sgERN1, 10000 nM | 120
sgRNA knockout: sgHSF1, 10 nM | 98.2
sgRNA knockout: sgHSF1, 100 nM | 97.2
sgRNA knockout: sgHSF1, 1000 nM | 108
sgRNA knockout: sgHSF1, 10000 nM | 102
sgRNA knockout: sgHSF2, 10 nM | 96.9
sgRNA knockout: sgHSF2, 100 nM | 79.2
sgRNA knockout: sgHSF2, 1000 nM | 121
sgRNA knockout: sgHSF2, 10000 nM | 116
sgRNA knockout: sgKEAP1, 10 nM | 94.1
sgRNA knockout: sgKEAP1, 100 nM | 90.1
sgRNA knockout: sgKEAP1, 1000 nM | 111
sgRNA knockout: sgKEAP1, 10000 nM | 107
sgRNA knockout: sgNFE2L2, 10 nM | 110
sgRNA knockout: sgNFE2L2, 100 nM | 99.5
sgRNA knockout: sgNFE2L2, 1000 nM | 110
sgRNA knockout: sgNFE2L2, 10000 nM | 126
sgRNA knockout: sgSLC35F2, 10 nM | 101
sgRNA knockout: sgSLC35F2, 100 nM | 84.8
sgRNA knockout: sgSLC35F2, 1000 nM | 106
sgRNA knockout: sgSLC35F2, 10000 nM | 120
sgRNA knockout: sgXBP1, 10 nM | 103.9
sgRNA knockout: sgXBP1, 100 nM | 111
sgRNA knockout: sgXBP1, 1000 nM | 119
sgRNA knockout: sgXBP1, 10000 nM | 108

CS(=O)(=O)N1CCN(Cc2cc3nc(-c4cccc5[nH]ncc45)nc(N4CCOCC4)c3s2)CC1 [GDC0941]
Details | relative cell number
sgRNA knockout: sgATF3, 10 nM | 96
sgRNA knockout: sgATF3, 100 nM | 83.6
sgRNA knockout: sgATF3, 1000 nM | 58.6
sgRNA knockout: sgATF3, 10000 nM | 45
sgRNA knockout: sgATF4, 10 nM | 109
sgRNA knockout: sgATF4, 100 nM | 94.9
sgRNA knockout: sgATF4, 1000 nM | 86.7
sgRNA knockout: sgATF4, 10000 nM | 49.4
sgRNA knockout: sgATF6, 10 nM | 98.4
sgRNA knockout: sgATF6, 100 nM | 69.8
sgRNA knockout: sgATF6, 1000 nM | 72.5
sgRNA knockout: sgATF6, 10000 nM | 48.1
sgRNA knockout: sgATG7, 10 nM | 91.7
sgRNA knockout: sgATG7, 100 nM | 86.2
sgRNA knockout: sgATG7, 1000 nM | 72.8
sgRNA knockout: sgATG7, 10000 nM | 54.4
sgRNA knockout: sgERN1, 10 nM | 97.4
sgRNA knockout: sgERN1, 100 nM | 86.9
sgRNA knockout: sgERN1, 1000 nM | 64.4
sgRNA knockout: sgERN1, 10000 nM | 39
sgRNA knockout: sgHSF1, 10 nM | 91.6
sgRNA knockout: sgHSF1, 100 nM | 103
sgRNA knockout: sgHSF1, 1000 nM | 65.1
sgRNA knockout: sgHSF1, 10000 nM | 41.9
sgRNA knockout: sgHSF2, 10 nM | 91.2
sgRNA knockout: sgHSF2, 100 nM | 75
sgRNA knockout: sgHSF2, 1000 nM | 67.9
sgRNA knockout: sgHSF2, 10000 nM | 40.7
sgRNA knockout: sgKEAP1, 10 nM | 95.88
sgRNA knockout: sgKEAP1, 100 nM | 94
sgRNA knockout: sgKEAP1, 1000 nM | 67
sgRNA knockout: sgKEAP1, 10000 nM | 42.7
sgRNA knockout: sgNFE2L2, 10 nM | 99.5
sgRNA knockout: sgNFE2L2, 100 nM | 75.1
sgRNA knockout: sgNFE2L2, 1000 nM | 75.2
sgRNA knockout: sgNFE2L2, 10000 nM | 45
sgRNA knockout: sgSLC35F2, 10 nM | 100.4
sgRNA knockout: sgSLC35F2, 100 nM | 81.8
sgRNA knockout: sgSLC35F2, 1000 nM | 78.7
sgRNA knockout: sgSLC35F2, 10000 nM | 52.3
sgRNA knockout: sgXBP1, 10 nM | 96.4
sgRNA knockout: sgXBP1, 100 nM | 91.9
sgRNA knockout: sgXBP1, 1000 nM | 72.4
sgRNA knockout: sgXBP1, 10000 nM | 47.9

OCc1ccc(-c2ccc(-c3ccc(CO)s3)o2)s1
Details | relative cell number
sgRNA knockout: sgATF3, 10 nM | 114
sgRNA knockout: sgATF3, 100 nM | 68
sgRNA knockout: sgATF3, 1000 nM | 22.6
sgRNA knockout: sgATF3, 10000 nM | 9.04
sgRNA knockout: sgATF4, 10 nM | 121
sgRNA knockout: sgATF4, 100 nM | 77.6
sgRNA knockout: sgATF4, 1000 nM | 24.5
sgRNA knockout: sgATF4, 10000 nM | 8.07
sgRNA knockout: sgATF6, 10 nM | 113
sgRNA knockout: sgATF6, 100 nM | 67.043
sgRNA knockout: sgATF6, 1000 nM | 25.8
sgRNA knockout: sgATF6, 10000 nM | 7.25
sgRNA knockout: sgATG7, 10 nM | 116
sgRNA knockout: sgATG7, 100 nM | 77.6
sgRNA knockout: sgATG7, 1000 nM | 24.9
sgRNA knockout: sgATG7, 10000 nM | 8.55
sgRNA knockout: sgERN1, 10 nM | 95.2
sgRNA knockout: sgERN1, 100 nM | 63
sgRNA knockout: sgERN1, 1000 nM | 22.8
sgRNA knockout: sgERN1, 10000 nM | 8.23
sgRNA knockout: sgHSF1, 10 nM | 89.9
sgRNA knockout: sgHSF1, 100 nM | 67
sgRNA knockout: sgHSF1, 1000 nM | 21.7
sgRNA knockout: sgHSF1, 10000 nM | 7.74
sgRNA knockout: sgHSF2, 10 nM | 114
sgRNA knockout: sgHSF2, 100 nM | 73.2
sgRNA knockout: sgHSF2, 1000 nM | 19.7
sgRNA knockout: sgHSF2, 10000 nM | 6.52
sgRNA knockout: sgKEAP1, 10 nM | 95
sgRNA knockout: sgKEAP1, 100 nM | 62.9
sgRNA knockout: sgKEAP1, 1000 nM | 21.2
sgRNA knockout: sgKEAP1, 10000 nM | 6.81
sgRNA knockout: sgNFE2L2, 10 nM | 135
sgRNA knockout: sgNFE2L2, 100 nM | 94.1
sgRNA knockout: sgNFE2L2, 1000 nM | 25.2
sgRNA knockout: sgNFE2L2, 10000 nM | 12.1
sgRNA knockout: sgSLC35F2, 10 nM | 109
sgRNA knockout: sgSLC35F2, 100 nM | 74.2
sgRNA knockout: sgSLC35F2, 1000 nM | 24
sgRNA knockout: sgSLC35F2, 10000 nM | 7.55
sgRNA knockout: sgXBP1, 10 nM | 110
sgRNA knockout: sgXBP1, 100 nM | 74.6
sgRNA knockout: sgXBP1, 1000 nM | 26
sgRNA knockout: sgXBP1, 10000 nM | 10.1

— the supplement of paper PMC7661543
